Results taken from PubChem BioAssay AID1794845 (National Center for Advancing Translational Sciences (NCATS), 2023).
Hit rate of the full screen: of about 6,900 compounds, fewer than 10 were called active. The call rests on the fitted dose curve; in most records, active means well fitted curve in the direction sought with a large enough effect; inconclusive means small, poorly fitted or top-dose-only effect, or another doubt; inactive means no such curve, though single readings can be large or run the other way. The list shows a part of the results.

Protein sequences, listed by entry. Tags and fused reporters are not part of them. Lines headed by an entry give the natural chain unless they say otherwise; changes in a name come on top.
UniProt C7C422: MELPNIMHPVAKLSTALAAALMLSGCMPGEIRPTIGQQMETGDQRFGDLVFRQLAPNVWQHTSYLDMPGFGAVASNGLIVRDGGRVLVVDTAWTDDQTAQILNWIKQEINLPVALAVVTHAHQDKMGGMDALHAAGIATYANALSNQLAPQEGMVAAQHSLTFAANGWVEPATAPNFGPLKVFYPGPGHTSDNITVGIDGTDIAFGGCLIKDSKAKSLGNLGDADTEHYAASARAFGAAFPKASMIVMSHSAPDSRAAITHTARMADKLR

What follows are compounds tested against Metallo-beta-lactamase type 2 (Klebsiella pneumoniae) (UniProt C7C422) (assay: qHTS to identify inhibitors of the New Delhi Metallo-beta-lactamase (NDM): primary screen against the NCATS Gemini Collection). Conditions: NDM-1 enzyme, meropenem hydrolysis, absorbance 300 nm; at 38.4 µM (top of the series) unless noted.
How it was run: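 Meropenem hydrolysis (50 uM final) by 2 nM NDM-1 read as 300 nm absorbance after 30 min, following >30 min compound–enzyme preincubation in HEPES pH 7.0 with 1 uM ZnSO4 and 0.01% Tween20.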
Further: % of control where 0% means no effect.

SMILES	activity % (negative = inhibition)
CCCC[S+](=O)([O-])N1CC(=O)N(CCCc2ccccc2)CC(O)C1 (stereo unspecified)	inactive: 0.416%
CN(Cc1cc(C[C@@H]2C[C@H](NC(=O)C(C)(C)C)C2(C)C)no1)c1ccccc1	inactive: -0.493% [at 57.5 µM]
c1cc2c(cc1OC1CNC1)OCO2	inactive: 10.2% [at 77.1 µM]
CC1(C)[C@H](Cc2cc(CN3CCCCC3)on2)C[C@@H]1N	inactive: 32% [at 77.1 µM]
CCn1c(CO)nnc1C1CC(NC(=O)c2sccc2N)C1 (stereo unspecified)	inactive: 55.6%
CN(C)C[C@@H]1CN(Cc2ccccn2)C[C@H]1NC(=O)c1n[nH]c2ccccc12	inactive: 7.43%
CCOc1ccccc1C(=O)NC1CCN(c2cc(C)cc(C)c2)C1=O (stereo unspecified)	inactive: -5.43%
O=C1NC(=NC2CCCC2)C2(CCCN([S+](=O)([O-])c3ccccc3)C2)N1c1cccnc1 (stereo unspecified)	inactive: -2.44%
CCN(CC)Cc1cnc2c(C(=O)N3CCCN4CCC[C@H]4C3)cnn2c1	inactive: -4.23%
Cc1c(C(C)NC(=O)c2ccc(=O)[nH]c2)cnn1-c1cccc2ccccc12 (stereo unspecified)	inactive: 4.53%
CCOC(=O)C1CCN(C(=O)C2COC3(CCCCC3)N2C(=O)c2cc(F)cc(F)c2)CC1 (stereo unspecified)	inactive: -0.153%
COCCn1c(COc2c(F)ccc(Cl)c2F)nnc1C1CC(N)C1 (stereo unspecified)	inactive: -2.79%
CCc1nc(NCc2cn[nH]c2-c2ccc(Cl)cc2)c2cnn(C)c2n1	inactive: -2.24%
O[C@H]1CC[C@@H](Cc2cc(CN3CCCCC3)on2)O[C@@H]1CNCc1cccnc1	inactive: -2.83% [at 57.5 µM]
COc1cccc(CN2Cc3nc(-c4cnn(C)c4)ccc3OCC2=O)c1	inactive: 5.31% [at 57.5 µM]
c1ccc(-c2n[nH]c(CC3CCNC3)n2)cc1 (stereo unspecified)	inactive: -14.8%
CCCC1(C2CCN(C(=O)Cc3ccc(OC)cc3)CC2)NC(=O)N(CCc2cccs2)C1=O (stereo unspecified)	inactive: 2.53%
Cc1cc(=O)n(CC(=O)Nc2ccc3c(c2)OCCO3)c(N2CCc3ccccc3C2)n1	inactive: 14.2%
Cc1noc2c(-c3cccc(CO)c3)cc(-c3cccc(C(F)(F)F)c3)nc12	inactive: 28.7% [at 57.5 µM]
Cc1cc(C[C@@H]2COC[C@@H]2NC(=O)c2ccc(Oc3ccccc3)o2)on1	inactive: 5.18%
O=C(NCc1ccccc1)C1COC2(CCN(C(=O)c3cccs3)CC2)N1C(=O)c1ccco1 (stereo unspecified)	inactive: -0.388%
CCOc1ccc(CN2CCCC(CCC(=O)Nc3ccccc3F)C2)cc1CO (stereo unspecified)	inactive: -0.193%

Exported as labelled records: 4 of the compounds above
CN(Cc1cc(C[C@@H]2C[C@H](NC(=O)C(C)(C)C)C2(C)C)no1)c1ccccc1
  activity % (negative = inhibition): inactive: -0.493% [at 57.5 µM]
c1cc2c(cc1OC1CNC1)OCO2
  activity % (negative = inhibition): inactive: 10.2% [at 77.1 µM]
CC1(C)[C@H](Cc2cc(CN3CCCCC3)on2)C[C@@H]1N
  activity % (negative = inhibition): inactive: 32% [at 77.1 µM]
CCn1c(CO)nnc1C1CC(NC(=O)c2sccc2N)C1 (stereo unspecified)
  activity % (negative = inhibition): inactive: 55.6%

Remaining list, next part:

SMILES	activity % (negative = inhibition)
COC(=O)[C@@H]1C[C@H](NC(=O)c2c(Cl)cccc2Cl)CN1C	inactive: 10.2%
Cc1noc(C)c1S(=O)(=O)N1CCCOCCNC(=O)[C@@H]2CCC[C@@H]21	inactive: -1.51%
COCCOCC(=O)N1CCC(N2C[C@H](OC)[C@@H]2c2cccnc2)CC1	inactive: 7.72%
CCc1nc(C)sc1C(=O)N1C[C@@H](CN2CCCN(C)CC2)[C@@H](CO)C1	inactive: -11.8%
CCC1(C(=O)O)CCCCC(=O)N1 (stereo unspecified)	inactive: 25.8%
COCc1nc(C2CC(NC(=O)CN3C(=O)CN(C)C3=O)C2)cc(=O)[nH]1 (stereo unspecified)	inactive: 3%
CCn1ncc(CN2CCCC23CCN(c2ccc(C(F)(F)F)cn2)CC3)c1C	inactive: 5.27%
O=C1CC(c2ccccc2)NCCCCCCN1 (stereo unspecified)	inactive: -4.45%
O=c1cc(N2CCOCC2)oc2c(NCC3CCOCC3)nccc12	inactive: 20.6% [at 57.5 µM]
CCC(=O)N1CCc2c(C(=O)N3CCCCC3)cccc21	inactive: 6.68%
CC1(C)[C@H]2CC[C@@H](CNC(=O)c3ccc4ccccc4n3)[C@@H]1C2	inactive: 8.22% [at 57.5 µM]
C=CCS(=O)(=O)N1C[C@H]2OC(=O)N(CCc3cccc(Cl)c3)[C@H]2C1	inactive: -0.273%
COC1CCC(C(=O)N2CCC3(CC2)OC(=O)N(CCOc2ccccc2)C3(C)c2cccnc2)CC1 (stereo unspecified)	inactive: 3.83%
Cc1nc(C(=O)N2CC[C@H](NC(=O)c3snnc3C)C[C@H]2C(=O)N[C@H](CC(C)C)C(N)=O)cs1	inactive: 1.66%
Cc1nc(C2CC(O)C2)cc(N2CCN(c3nc4ccccc4s3)CC2)n1 (stereo unspecified)	inactive: 9.86%
O=C(Cc1ccccn1)N1CCCC(C(=O)N2CCC(N3CCCC3=O)CC2)C1 (stereo unspecified)	inactive: 1.86%
Cc1cc(C)cc(NC(=O)Cn2c(-c3cnccn3)nc(C)c(C)c2=O)c1	inactive: -0.0371%
CCC(CC)C(=O)N1CCC2(CC1)C(=O)N(C)c1ccccc12	inactive: 2.54%
CCc1c(C)nn(CCNC(=O)c2cc(S(N)(=O)=O)ccc2F)c1C	inactive: -0.662%
CN1CC2(CCOC2)N(C2CCN(C(=O)C3CCCC3)CC2)C1=O (stereo unspecified)	inactive: 7.02%
Cc1cc2ncc(C(=O)N3CCN(c4ncccn4)CC3)cn2n1	inactive: 4.18% [at 57.5 µM]
O=C(O)[C@@H]1CN(C(=O)CCCc2cn[nH]c2)C[C@H]1c1ccc2c(c1)OCO2	inactive: 1.54%

SMILES	activity % (negative = inhibition)
COCCOC1CCN(C(C(=O)O)c2ccc(OC)c(F)c2)CC1 (stereo unspecified)	inactive: 14.1%
COCCN1C[C@H]2CN(C(=O)C3CCC3)C[C@@]2(C(=O)O)C1	inactive: 21.1%
Nc1nc(NCc2ccc(Cl)cc2Cl)cc(C2CC(O)C2)n1 (stereo unspecified)	inactive: -1.82%
Cn1cc(CCC(=O)N[C@@H]2CCOC[C@H]2Oc2ccc(C(=O)O)cc2)cn1	inactive: 36.4%
CC(C)(C)CN1CCC2(CC1)COc1ccccc1[S+](=O)([O-])N2	inactive: 0.46%
CC(C)(C(=O)O)c1cnc(N2CC[C@H](CO)[C@H](O)C2)nc1N1CCOCC1	inactive: 4.13%
CN1CC[C@H](N(Cc2ccccc2)Cc2ccccc2)C[C@H](O)C1	inactive: 21%
Cc1ccsc1C(=O)N1CC(Oc2ccccc2-c2nc(-c3cnccn3)no2)C1	inactive: 0.893%
O=C(CC1CCCC1)N1CCCC(c2nn[nH]n2)C1 (stereo unspecified)	inactive: -0.11%
COCCC1(N(C)C)CCN(C(=O)c2ccnn2C)CC1	inactive: -1.17%
Cc1cccc(C(=O)N2C[C@H]3OC(=O)N(CCCN4CCOCC4)[C@H]3C2)c1	inactive: 4.71%
CC(C)c1ccc(N2CC(C(=O)N(C)C3CCSCC3)CC2=O)cc1 (stereo unspecified)	inactive: 28.5%
CCC1(C(=O)NCCCN2CCCC2=O)CCCCC(=O)N1 (stereo unspecified)	inactive: -7.98%
CO[C@H]1[C@H](NC(=O)c2ccc(C)c(O)c2)c2ccccc2C12CCNCC2	inactive: -5.26%
CC(C(N)=O)N1CCn2nc(CCC(=O)N3CCOCC3)cc2C1 (stereo unspecified)	inactive: -0.0539%
CCn1cc(CN2CC[C@H](CNC(=O)COC)[C@H](N(C)C)C2)c(C)n1	inactive: -1.7%
CN1C(=O)CC(C(=O)O)C12CCN(Cc1cccc(Cn3cccn3)c1)CC2 (stereo unspecified)	inactive: 1.24%
CCn1ccc2oc(C)c(C(=O)N3CCN(c4cccc(C)c4C)CC3)c2c1=O	inactive: 2.21%
O=C1CCC(C(=O)N2CCSCC2)CN1CCc1cccc(F)c1 (stereo unspecified)	inactive: 6.53%
O=C(Nc1ccc2c(c1)OCCO2)N1CCCCC1c1nc(CCOCC2CC2)no1 (stereo unspecified)	inactive: 3.52%
Cc1ccc(C(=O)N2CCC3(CC2)CC(c2ccccc2)C(=O)N3C)s1 (stereo unspecified)	inactive: -0.0173%
CN(C)C[C@@H]1CN(c2ncccn2)C[C@H]1NS(=O)(=O)c1cccnc1	inactive: 1.09%

SMILES	activity % (negative = inhibition)
Cc1nn(C)c(C)c1-c1nc2cc(S(=O)(=O)N3CCCC3)ccc2n1C	inactive: 11.1%
Cc1nc2c(NC3CCN(C(=O)c4cnccn4)CC3)cccn2n1	inactive: 12.6%
CN(Cc1ccc(OC(F)(F)F)cc1)Cc1ccccc1C(F)(F)F	inactive: 25.6%
COCc1ncc(C)n1CCNC(=O)c1cc(-c2cc(C)ccc2C)n[nH]1	inactive: -2.64%
O=C(NCc1ccc2c(c1)OCO2)c1nc(-c2ccc(F)cc2)c2cnccn12	inactive: 20.3%
COCCC1(NC(=O)C2CC2)CCN(C(=O)c2ccccn2)CC1	inactive: 5.91%
CC(C)c1ccc(N2C(=O)N[C@@H]3CCN(C(=O)C4CCCC4)[C@@H]3C2=O)cc1	inactive: -1.05% [at 57.5 µM]
COCCCNC(=O)c1cc(C)nc2onc(C3CCCNC3)c12 (stereo unspecified)	inactive: 2.95%
CCCNC(=O)c1c(-c2ccccc2)cc(=O)n2c1CCC2	inactive: 6.01%
O=C(c1c[nH]c2ncccc12)N1CCC(Cc2ccccc2)CC1	inactive: -0.941% [at 57.5 µM]
CN1CCC(OC2CCN(C(=O)c3cccc(F)c3)CC2)CC1	inactive: 0.673%
CNC(=O)c1cc[nH]c1C1CCCN(C(=O)c2ccc(Cn3cncn3)o2)C1 (stereo unspecified)	inactive: 3.21%
CC(C)CCN1CCC2(C1)C(=O)N(c1ccccc1)c1ccccc12 (stereo unspecified)	inactive: -3.65%
CCn1c2c(c(=O)n1-c1ccccc1)CCN(C(=O)C1CCC1)C2	inactive: -2.87% [at 57.5 µM]
CCc1noc([C@@H]2CC(F)(F)CN2C(=O)c2ccco2)n1	inactive: 23.1%
O=C(c1c[nH]c(=O)[nH]1)N1CC[C@@H]2[C@@H](CCC(=O)N2CC2CCNCC2)C1	inactive: -0.111%
COCCc1noc(CC2CCOC3(CCN(C(=O)C4CCOCC4)CC3)C2)n1 (stereo unspecified)	inactive: -1.21%
Cc1oc(-c2ccccc2)nc1CN1CCCC(C(=O)N2CCC(c3nc(C(=O)N4CCCC4)c(C)o3)CC2)C1 (stereo unspecified)	inactive: 2.21%
O=C(NC1CC1)[C@@H]1CN(CCCc2ccccc2)C[C@H]1CO	inactive: 19.1%
COCc1nc(CCNS(=O)(=O)c2cccc(OC)c2)no1	inactive: -10.4%
